# According to the supplement of paper PMC8728848:
# The other results are listed elsewhere or left out.
# Experiments:
# Test in all cases: glycan array binding signal (z-score within array); higher = stronger binding
# Conditions in all cases: glycan notation: IUPAC condensed, linker removed
# [1] = target: Neu5Ac(a2-3)Gal(b1-3)GlcNAc6S
# In short: (§1)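 The binding signal is a Z-score computed within each array. Data were drawn from 3228 arrays in the Consortium for Functional Glycomics database, restricted to those with a known protein sequence. Scores were averaged over arrays of the same protein sequence at different concentrations or buffers, and over linkers, and negative values can be taken as non-binding.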
# [2] = target: Neu5Ac(a2-3)Gal(b1-3)[Fuc(a1-4)]GlcNAc
# In short: as §1
# [3] = target: Neu5Ac(a2-3)Gal(b1-3)[Fuc(a1-4)]GlcNAc(b1-3)Gal(b1-3)[Fuc(a1-4)]GlcNAc
# In short: as §1
# [4] = target: Neu5Ac(a2-3)Gal(b1-3)[Fuc(a1-4)]GlcNAc(b1-3)Gal(b1-4)[Fuc(a1-3)]GlcNAc
# In short: as §1
# [5] = target: Neu5Ac(a2-3)Gal(b1-3)[GlcNAc(b1-6)]GalNAc
# In short: as §1
# [6] = target: Neu5Ac(a2-3)Gal(b1-3)[Neu5Ac(a2-6)]GalNAc
# In short: as §1
# [7] = target: Neu5Ac(a2-3)Gal(b1-3)[Neu5Ac(a2-6)]GlcNAc(b1-3)[Fuc(a1-3)[Gal(b1-4)]GlcNAc(b1-6)]Gal(b1-4)Glc
# In short: as §1
# [8] = target: Neu5Ac(a2-3)Gal(b1-3)]Neu5Ac(a2-3)Gal(b1-4)]GlcNAc
# In short: as §1
# [9] = target: Neu5Ac(a2-3)Gal(b1-4)Glc
# In short: as §1
# [10] = target: Neu5Ac(a2-3)Gal(b1-4)GlcNAc
# In short: as §1
# [11] = target: Neu5Ac(a2-3)Gal(b1-4)GlcNAc(b1-2)Man
# In short: as §1
# [12] = target: Neu5Ac(a2-3)Gal(b1-4)GlcNAc(b1-2)Man(a1-3)[GlcNAc(b1-4)][Neu5Ac(a2-3)Gal(b1-4)GlcNAc(b1-2)Man(a1-6)]Man(b1-4)GlcNAc(b1-4)GlcNAc
# In short: as §1
# [13] = target: Neu5Ac(a2-3)Gal(b1-4)GlcNAc(b1-2)Man(a1-3)[Neu5Ac(a2-3)Gal(b1-4)GlcNAc(b1-2)Man(a1-6)]Man(b1-4)GlcNAc(b1-4)GlcNAc
# In short: as §1
# [14] = target: Neu5Ac(a2-3)Gal(b1-4)GlcNAc(b1-2)Man(a1-3)[Neu5Ac(a2-3)Gal(b1-4)GlcNAc(b1-2)Man(a1-6)]Man(b1-4)GlcNAc(b1-4)[Fuc(a1-6)]GlcNAc
# In short: as §1
# [15] = target: Neu5Ac(a2-3)Gal(b1-4)GlcNAc(b1-2)Man(a1-3)[Neu5Ac(a2-6)Gal(b1-4)GlcNAc(b1-2)Man(a1-6)]Man(b1-4)GlcNAc(b1-4)GlcNAc
# In short: as §1
# [16] = target: Neu5Ac(a2-3)Gal(b1-4)GlcNAc(b1-2)[Neu5Ac(a2-3)Gal(b1-4)GlcNAc(b1-4)]Man(a1-3)[GlcNAc(b1-4)][Neu5Ac(a2-3)Gal(b1-4)GlcNAc(b1-2)[Neu5Ac(a2-3)Gal(b1-4)GlcNAc(b1-6)]Man(a1-6)]Man(b1-4)GlcNAc(b1-4)GlcNAc
# In short: as §1
# [17] = target: Neu5Ac(a2-3)Gal(b1-4)GlcNAc(b1-2)[Neu5Ac(a2-3)Gal(b1-4)GlcNAc(b1-4)]Man(a1-3)[GlcNAc(b1-4)][Neu5Ac(a2-3)Gal(b1-4)GlcNAc(b1-4)Man(a1-6)]Man(b1-4)GlcNAc(b1-4)GlcNAc
# In short: as §1
# [18] = target: Neu5Ac(a2-3)Gal(b1-4)GlcNAc(b1-2)[Neu5Ac(a2-3)Gal(b1-4)GlcNAc(b1-6)]Man(a1-6)[Neu5Ac(a2-3)Gal(b1-4)GlcNAc(b1-2)Man(a1-3)][GlcNAc(b1-4)]Man(b1-4)GlcNAc(b1-4)GlcNAc
# In short: as §1
# [19] = target: Neu5Ac(a2-3)Gal(b1-4)GlcNAc(b1-3)Gal
# In short: as §1
# [20] = target: Neu5Ac(a2-3)Gal(b1-4)GlcNAc(b1-3)Gal(b1-3)GlcNAc
# In short: as §1
# [21] = target: Neu5Ac(a2-3)Gal(b1-4)GlcNAc(b1-3)Gal(b1-4)GlcNAc
# In short: as §1
# [22] = target: Neu5Ac(a2-3)Gal(b1-4)GlcNAc(b1-3)Gal(b1-4)GlcNAc(b1-2)Man(a1-3)[Neu5Ac(a2-3)Gal(b1-4)GlcNAc(b1-3)Gal(b1-4)GlcNAc(b1-2)Man(a1-6)]Man(b1-4)GlcNAc(b1-4)GlcNAc
# In short: as §1
# [23] = target: Neu5Ac(a2-3)Gal(b1-4)GlcNAc(b1-3)Gal(b1-4)GlcNAc(b1-3)Gal(b1-4)GlcNAc
# In short: as §1
# [24] = target: Neu5Ac(a2-3)Gal(b1-4)GlcNAc(b1-3)Gal(b1-4)GlcNAc(b1-3)Gal(b1-4)GlcNAc(b1-2)Man(a1-3)[Neu5Ac(a2-3)Gal(b1-4)GlcNAc(b1-3)Gal(b1-4)GlcNAc(b1-3)Gal(b1-4)GlcNAc(b1-2)Man(a1-6)]GalNAc
# In short: as §1
# [25] = target: Neu5Ac(a2-3)Gal(b1-4)GlcNAc(b1-3)Gal(b1-4)GlcNAc(b1-3)GalNAc
# In short: as §1
# [26] = target: Neu5Ac(a2-3)Gal(b1-4)GlcNAc(b1-3)Gal(b1-4)GlcNAc(b1-3)[Neu5Ac(a2-3)Gal(b1-4)GlcNAc(b1-3)Gal(b1-4)GlcNAc(b1-6)]GalNAc
# In short: as §1
# [27] = target: Neu5Ac(a2-3)Gal(b1-4)GlcNAc(b1-3)Gal(b1-4)GlcNAc(b1-6)[Gal(b1-3)]GalNAc
# In short: as §1
# [28] = target: Neu5Ac(a2-3)Gal(b1-4)GlcNAc(b1-3)Gal(b1-4)[Fuc(a1-3)]GlcNAc
# In short: as §1
# [29] = target: Neu5Ac(a2-3)Gal(b1-4)GlcNAc(b1-3)GalNAc
# In short: as §1
# [30] = target: Neu5Ac(a2-3)Gal(b1-4)GlcNAc(b1-3)[Neu5Ac(a2-3)Gal(b1-4)GlcNAc(b1-6)]GalNAc
# In short: as §1
binder,measurement,setting,value
Agalectin (Anopheles gambiae) (protein) MSNRPFTAKFPRYPENGDEVFIRGKLKDDAKSFSVNFCLPRPAQVAEHQTPPYIALHFKTIYDERDDTSRVVLNWKNLQWQQEEVLDNYWHVDRSQTFRVVFRLHEDCIKVFVNSVDHPPDYQFPVQLPLDQIESIELWDDVEHVEEISFRYDNGNSY,glycan array binding signal (z-score),[1],0.548
same,glycan array binding signal (z-score),[2],0.004
same,glycan array binding signal (z-score),[3],-0.399
same,glycan array binding signal (z-score),[4],0.198
same,glycan array binding signal (z-score),[5],0.456
same,glycan array binding signal (z-score),[6],0.12
same,glycan array binding signal (z-score),[7],1.48
same,glycan array binding signal (z-score),[8],-0.912
same,glycan array binding signal (z-score),[9],0.149
same,glycan array binding signal (z-score),[10],0.023
same,glycan array binding signal (z-score),[11],-0.7
same,glycan array binding signal (z-score),[12],-0.172
same,glycan array binding signal (z-score),[13],-0.639
same,glycan array binding signal (z-score),[14],-0.933
same,glycan array binding signal (z-score),[15],-0.631
same,glycan array binding signal (z-score),[16],-0.065
same,glycan array binding signal (z-score),[17],0.93
same,glycan array binding signal (z-score),[18],0.436
same,glycan array binding signal (z-score),[19],-0.558
same,glycan array binding signal (z-score),[20],0.234
same,glycan array binding signal (z-score),[21],-0.337
same,glycan array binding signal (z-score),[22],-0.317
same,glycan array binding signal (z-score),[23],1.16
same,glycan array binding signal (z-score),[24],2.18
same,glycan array binding signal (z-score),[25],-0.041
same,glycan array binding signal (z-score),[26],0.683
same,glycan array binding signal (z-score),[27],2.16
same,glycan array binding signal (z-score),[28],0.62
same,glycan array binding signal (z-score),[29],-0.499
same,glycan array binding signal (z-score),[30],0.081

# A second format for some results above.
binder	measurement	setting	value
Agalectin (Anopheles gambiae) (protein) MSNRPFTAKFPRYPENGDEVFIRGKLKDDAKSFSVNFCLPRPAQVAEHQTPPYIALHFKTIYDERDDTSRVVLNWKNLQWQQEEVLDNYWHVDRSQTFRVVFRLHEDCIKVFVNSVDHPPDYQFPVQLPLDQIESIELWDDVEHVEEISFRYDNGNSY	glycan array binding signal (z-score)	[1]	0.548
same	glycan array binding signal (z-score)	[2]	0.004
